Results are given in words; binding and its absence hold for the method and conditions named. Binding seen in cells or lysates may run through a third protein. Some results given as binding are weak or reduced against the parent protein; the word gives no strength.
Experiments:
[1] = target: p110α catalytic subunit of PI3K (human (endogenous in OAW28)) (UniProt P42336); assay: co-IP; IP of p110α from OAW28 cells transfected with PIK3R1 siRNA or controls; western blotting
[2] = target: HA-tagged Gab2 S623A mutant (UniProt Q9UQC2); assay: co-IP; IP with HA antibody from OVCAR5 cells transfected with HA-tagged wild-type GAB2 or GAB2 S623A; empty vector as control; western blotting
HA-tagged wild-type Gab2 = HA-tagged wild-type Gab2 (UniProt Q9UQC2); assay: as above
[3] = target: Grb2-associated binder 2 (Gab2) (human (endogenous in SKOV3 and OAW28)) (UniProt Q9UQC2); assay: proximity ligation; Duolink PLA in fixed, permeabilised SKOV3 cells transfected with PIK3R1 siRNA or controls; pairs of primary antibodies; spots per nucleus counted
[4] = target: Grb2-associated binder 2 (Gab2) (human (endogenous in SKOV3 and OAW28)) (UniProt Q9UQC2); assay: co-IP; IP with Gab2 antibody from total lysates of SKOV3 cells (PIK3R1 siRNA or controls; in Fig. 6d with or without PTEN overexpression plasmid); IP lysis buffer 50 mM Tris, 150 mM NaCl, 0.5% NP-40, 5 mM EDTA; protein A/G agarose; western blotting

By UniProt entry, the sequences of proteins in these tests, tags left out. Where a name states a change or a piece, a line headed by the entry shows the natural chain unless it says otherwise.
UniProt Q9UQC2: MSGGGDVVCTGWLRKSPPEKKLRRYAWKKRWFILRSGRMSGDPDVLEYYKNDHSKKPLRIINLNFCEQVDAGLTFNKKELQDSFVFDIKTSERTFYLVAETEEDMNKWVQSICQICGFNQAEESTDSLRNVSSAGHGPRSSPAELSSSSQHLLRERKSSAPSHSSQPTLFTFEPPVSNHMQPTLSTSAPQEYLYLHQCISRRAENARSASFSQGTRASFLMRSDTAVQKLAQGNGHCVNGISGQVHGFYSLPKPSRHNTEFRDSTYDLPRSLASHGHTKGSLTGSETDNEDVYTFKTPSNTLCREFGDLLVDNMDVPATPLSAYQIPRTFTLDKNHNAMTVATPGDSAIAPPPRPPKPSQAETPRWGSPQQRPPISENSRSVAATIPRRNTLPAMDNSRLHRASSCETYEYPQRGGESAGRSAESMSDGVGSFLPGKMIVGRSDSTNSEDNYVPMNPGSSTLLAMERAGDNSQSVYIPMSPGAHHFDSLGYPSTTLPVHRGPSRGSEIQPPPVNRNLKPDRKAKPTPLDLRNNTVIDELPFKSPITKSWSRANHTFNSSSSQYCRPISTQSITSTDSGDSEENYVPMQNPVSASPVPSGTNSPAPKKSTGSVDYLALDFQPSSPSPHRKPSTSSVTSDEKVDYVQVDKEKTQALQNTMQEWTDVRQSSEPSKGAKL
UniProt P40763: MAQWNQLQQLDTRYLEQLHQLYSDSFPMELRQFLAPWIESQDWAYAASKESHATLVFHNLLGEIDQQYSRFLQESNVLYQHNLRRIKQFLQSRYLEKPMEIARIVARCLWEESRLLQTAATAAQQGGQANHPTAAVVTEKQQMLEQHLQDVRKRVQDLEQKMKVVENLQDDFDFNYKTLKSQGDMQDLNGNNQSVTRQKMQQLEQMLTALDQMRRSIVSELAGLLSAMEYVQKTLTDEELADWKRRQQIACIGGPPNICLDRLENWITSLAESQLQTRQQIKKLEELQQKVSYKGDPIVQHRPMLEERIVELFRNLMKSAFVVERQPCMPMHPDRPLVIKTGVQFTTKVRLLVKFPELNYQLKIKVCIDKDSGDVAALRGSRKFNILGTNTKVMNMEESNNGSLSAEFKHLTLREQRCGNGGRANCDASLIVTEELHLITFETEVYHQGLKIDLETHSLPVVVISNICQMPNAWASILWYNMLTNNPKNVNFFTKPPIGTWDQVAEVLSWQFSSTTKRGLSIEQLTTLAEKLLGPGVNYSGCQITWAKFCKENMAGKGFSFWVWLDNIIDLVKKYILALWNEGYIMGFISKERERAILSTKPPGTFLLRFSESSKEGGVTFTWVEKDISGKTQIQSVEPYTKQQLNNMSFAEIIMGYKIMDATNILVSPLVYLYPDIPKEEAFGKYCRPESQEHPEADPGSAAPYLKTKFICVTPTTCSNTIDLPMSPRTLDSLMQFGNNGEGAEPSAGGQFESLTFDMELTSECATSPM

Row | binding [1] | binding [2] | binding (HA-tagged wild-type Gab2) | binding [3] | binding [4] | Substance
1 | binds | – | – | – | – | EGFR (from UniProt P00533 25-1210) (receptor)
2 | binds | – | – | – | – | Grb2-associated binder 2 (Gab2) (from UniProt Q9UQC2 1-676)
3 | – | binds | binds | binds | binds | STAT3 (from UniProt P40763 1-770)

Reference: PMC6372715
